Experimental data reported in PubChem BioAssay AID504444 (National Center for Advancing Translational Sciences (NCATS), 2011).
The whole screen tested about 360,000 compounds, of which about 7,500 (2.1%) were called active. The shares of active, inactive and inconclusive entries below differ from those in the screen. The call rests on the fitted dose curve; in most records, active means well fitted inhibition curve with a large enough effect; inconclusive means small, poorly fitted or top-dose-only effect, or effect the other way; inactive means flat fitted curve, though single readings scatter. Where the call is inconclusive, the potency comes from a doubtful curve fit.

test: Nrf2 qHTS screen for inhibitors; conditions: A549 ARE-Fluc reporter, luciferase luminescence, 18-24 h; series mostly up to 46 µM; further: nearly all actives have a fitted effect of over 60% in size
Method in brief: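 A549 ARE_Fluc cells (5000/well, 5% FBS OPTI-MEM) pre-incubated 2 h, then treated with compounds 18-24 h at 37C/5% CO2 in concentration-response. CellTiter-Fluor viability read first; BugLite luciferase luminescence after 15 min at room temperature gives Nrf2 activity.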
Potency means the concentration at half of the fitted maximal effect.

Compound	Potency
CCc1ccc2oc(-c3cccc(NC(=O)COc4ccccc4Cl)c3)nc2c1	inconclusive: 11.6 µM [activator, partial curve]
Cc1ccc(S(=O)(=O)Nc2cc(-c3nn(C)c(=O)c4ccccc34)ccc2N2CCOCC2)cc1	inconclusive: 16.4 µM [falling, partial curve, poor fit]
Clc1ccccc1COc1ccc(/C=N/n2cnnc2)cc1	inconclusive: 7.31 µM [falling, partial curve, poor fit]
CCC(C)(C)NC(=O)C(c1ccncc1)N(C(=O)c1sc(C)nc1C)c1ccc(C)cc1 (stereo unspecified)	inactive
O=C(CCCC(=O)N1CCCC1)N1CCCC1	inconclusive: 18.4 µM [activator, single point]
CCn1c(CNC(=O)COc2ccc(C(C)C)cc2)nnc1SCC(=O)Nc1ccccc1C(C)C	active: 16.4 µM
COc1ccc(NS(=O)(=O)c2cccc(NC(=O)C34CCC(CC3)C4)c2)cc1	inconclusive: 20.6 µM [falling, single point]
COc1ccc2ccc3cccc[n+]3c2c1	active: 4.61 µM
COc1ccc(C(=O)N[C@H](C(=O)NCCCn2nc(C)cc2C)C(C)C)cc1	inactive
CCOc1ccc(N(CC(=O)Nc2c(C)n(C)n(-c3ccccc3)c2=O)S(=O)(=O)c2ccc(F)cc2)cc1	inconclusive: 32.6 µM [falling, partial curve, poor fit]
O=c1cc(CSc2nnc(Nc3ccccc3F)s2)nc2sccn12	inconclusive: 23.1 µM [falling, partial curve]
CNC(=S)N/N=C/c1cn(Cc2ccc(F)cc2)c2ccccc12	inconclusive: 11.6 µM [activator, partial curve, poor fit]
Cc1noc(C)c1CSCC(=O)Nc1cc(S(=O)(=O)N2CCCCC2)ccc1OC(C)C	inconclusive: 29.1 µM [falling, single point]
CC(C)CCNC(=O)c1cc(-c2ccc(Br)s2)nc2ccccc12	inactive
COc1ccc(-c2cc(C)no2)cc1S(=O)(=O)N1CCCC(C)C1 (stereo unspecified)	inconclusive: 0.326 µM [falling, full curve]
CC(NC(=O)COC(=O)c1c[nH]c2ccccc12)c1ccccc1 (stereo unspecified)	active: 20.6 µM
CCC(CO)NCc1ccc(OCC(O)c2ccccc2)c(OC)c1 (stereo unspecified)	inactive
COC(=O)C(C)n1cnc2c(cnn2-c2ccc(Cl)cc2)c1=O (stereo unspecified)	inconclusive: 2.31 µM [activator, single point]
CCOc1ccccc1N(CC(=O)N/N=C/c1cc(Br)ccc1OC)S(C)(=O)=O	inconclusive: 25.9 µM [falling, single point]
COc1cc(-c2[nH]ncc2CN(C)Cc2nonc2C)cc(OC)c1OC	inconclusive: 7.31 µM [falling, partial curve]
O=C(Cc1nc(=O)c2ccccc2s1)Nc1ccccc1	inconclusive: 0.291 µM [activator, partial curve, poor fit]
CC1CCC(C(=O)NC(C(=O)N2CCc3ccccc3C2)C(C)C)CC1 (stereo unspecified)	inactive

As entered above:
COc1ccc(NS(=O)(=O)c2cccc(NC(=O)C34CCC(CC3)C4)c2)cc1 – Potency: inconclusive: 20.6 µM [falling, single point]
O=C(CCCC(=O)N1CCCC1)N1CCCC1 – Potency: inconclusive: 18.4 µM [activator, single point]
COc1ccc2ccc3cccc[n+]3c2c1 – Potency: active: 4.61 µM

(cont.)

Compound	Potency
CCOc1ccc(S(=O)(=O)Nc2cccc(C(=O)NCCCN3CCCC3=O)c2)cc1	inconclusive: 29.1 µM [falling, single point]
CCOC(=O)c1cc(-c2ccccc2)sc1NC(=O)CN1C(=O)NC(CC)(c2ccc(F)cc2)C1=O (stereo unspecified)	inconclusive: 25.9 µM [falling, partial curve, poor fit]
CCc1ccccc1NC(=O)C(CC)Sc1nc2cc3c(cc2c(=O)n1Cc1ccco1)OCO3 (stereo unspecified)	inconclusive: 10.3 µM [falling, partial curve, poor fit]
O=C(c1cc(COc2ccc(F)c(F)c2)on1)N1CCN(C/C=C/c2ccccc2)CC1	inconclusive: 5.8 µM [activator, partial curve]
CCCCCCCCCCCCCCCC[N+](C)(C)Cc1ccc(F)cc1	inconclusive: 29.1 µM [falling, single point]
CCOc1ccccc1NC1=C(Cl)C(=O)N(Cc2ccccc2)C1=O	inconclusive: 14.6 µM [falling, single point]
CSc1ncc(Cl)c(C(=O)C(C#N)c2nc3c(C)cc(C)cc3c(=O)[nH]2)n1 (stereo unspecified)	inconclusive: 0.184 µM [falling, full curve, poor fit]
N#Cc1cccc(NC(=O)CNc2cccc(S(=O)(=O)N3CCCCC3)c2)c1	inconclusive: 20.6 µM [falling, single point]
N/C(=C\C(=O)c1cc(Cl)ccc1O)C(Cl)(Cl)Cl	inactive
COc1ccccc1CNc1nc2ccccc2c2nc(-c3cccc(C)c3)nn12	inconclusive: 9.2 µM [activator, partial curve]
O=C(NCCc1ccccc1)c1noc2c1CCc1ccccc1-2	inconclusive: 6.51 µM [falling, single point]
CCOc1cc(C(=O)Nc2nnc(S(=O)(=O)N3CCOCC3)s2)cc(OCC)c1OCC	inconclusive: 29.1 µM [falling, single point]
Cc1ccc(C)c2[nH]c(=O)c(CN(CCCN(C)C)C(=O)NCc3ccccc3)cc12	inactive
COc1ccc(-c2noc(CCC(=O)N3CCN(c4cccc(OC)c4)CC3)n2)cc1	inconclusive: 25.9 µM [falling, partial curve]
Cc1cccc(CCNC(=O)c2cc3c(=O)[nH]c4ccc(C)cc4c3s2)c1	inconclusive: 1.84 µM [falling, partial curve]
Nc1c(C(=O)NCc2ccco2)c2nc3ccccc3nc2n1CCc1ccccc1F	inconclusive: 6.51 µM [falling, partial curve]
Cc1cc2oc(=O)cc(CN3CCCCC3C)c2cc1C(C)C (stereo unspecified)	inconclusive: 29.1 µM [falling, single point]
O=C(Nc1nc2ccccc2s1)c1ccc(OCC2CCCO2)cc1 (stereo unspecified)	inconclusive: 20.6 µM [activator, partial curve]
O=C(C1CCCCC1)N1CCN(c2ccnc3cc(Cl)ccc23)CC1	active: 20.6 µM
Cc1ccc(C(=O)Nc2ncc(C)s2)s1	inconclusive: 20.6 µM [activator, partial curve]
COc1ccc(NC(=O)c2nnn(CC(=O)Nc3cccc(C)c3C)c2N)c(OC)c1	inconclusive: 3.26 µM [activator, single point]
CC(C)(C)c1ccc(OCC(=O)N(c2ccccn2)C2CCCCC2)cc1	inconclusive: 20.6 µM [falling, single point]

Compound	Potency
O=S1(=O)c2c(F)cccc2OC(COCc2ccccc2)CN1C1CCCC1 (stereo unspecified)	inconclusive: 29.1 µM [falling, single point]
Cc1cc(C(=O)Nc2nnc(C3CCCCC3)s2)no1	inconclusive: 20.6 µM [activator, partial curve, poor fit]
O=C(NC1CCCC1)c1ccccc1OCc1ccccc1	inconclusive: 14.6 µM [falling, partial curve]
CCOC(=O)C1=C(C)n2c(s/c(=C/c3cccc([N+](=O)[O-])c3)c2=O)=NC1c1ccc(O)c(OC)c1 (stereo unspecified)	inconclusive: 7.31 µM [falling, single point]
O=C(CSc1nnc(COc2ccc(F)cc2)o1)N1c2ccccc2CCc2ccccc21	inconclusive: 29.1 µM [falling, single point]
CC1CCN(C(=O)COC(=O)c2n[nH]c3ccccc23)CC1	inconclusive: 6.51 µM [activator, partial curve]
CCOc1ccc2nc(NCCCNS(=O)(=O)c3ccccc3)c(C#N)cc2c1	inconclusive: 32.6 µM [falling, single point]
COc1cc2c(cc1NC(=O)COc1ccc(Br)cc1)oc1ccccc12	inactive
COc1nc(Nc2ccc(-c3nc4ccccc4o3)cc2)nc(N2CCOCC2)n1	inactive
COc1ccccc1CCNC(=O)CCn1c(=O)oc2ccccc21	inconclusive: 4.11 µM [falling, single point]
Cc1cc(C)c(NC(=O)C2CCN(C(=O)N3CCOc4ccccc43)CC2)c(C)c1	inconclusive: 6.51 µM [activator, partial curve]
O=[N+]([O-])c1ccc(CN2C=NS(=O)(=O)c3ccccc32)cc1	inconclusive: 8.2 µM [falling, partial curve, poor fit]
CCOC(=O)c1c(NC(=O)C2CCCCC2C(=O)O)sc2c1CCCCC2 (stereo unspecified)	inconclusive: 25.9 µM [falling, partial curve, poor fit]
O=C(Nc1ccc(Cl)cc1)N1CCC(c2nc(-c3cccs3)no2)CC1	inconclusive: 25.9 µM [falling, single point]
COc1ccc(CN(C)C(=O)c2cccc(S(=O)(=O)N3CCCc4ccccc43)c2)c(OC)c1OC	active: 23.1 µM
CN(C(=O)c1ccncc1)c1nnc(-c2ccccn2)s1	inconclusive: 16.4 µM [activator, single point]
N#C/C(=N\Nc1cc(Cl)cc(Cl)c1)c1nnc2n1CCCCC2	active: 18.4 µM
CC1CCC(C(=O)NC(C(=O)NCc2ccccn2)C(C)C)CC1 (stereo unspecified)	inconclusive: 8.2 µM [activator, partial curve, poor fit]
O=C(NCc1ccco1)c1ccc(Cl)c(S(=O)(=O)N2CCOCC2)c1	inactive
O=c1[nH]c2ccccc2cc1-c1noc(-c2cccnc2)n1	inactive
COc1cccc(-n2c(CN3CCN(c4ccccc4)CC3)nc3ccc([N+](=O)[O-])cc3c2=O)c1	inactive
Cn1cc(Br)c(C(=O)NNC(=O)c2ccc(Br)cc2)n1	inconclusive: 20.6 µM [activator, partial curve, poor fit]
